Measured data: PubChem BioAssay AID1259290 (Sanger Institute, 2017)
Test: 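Identify kinases needed for colorectal cancer cell survival, with or without anchor drugs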 (primary screen). Cell system: human SNUC1 colorectal cancer cells. Reagents: siRNA pool against human genes. Treatment: anchor drugs BYL719 1 µM, cetuximab 5 µg/ml or trametinib 10 nM, or DMSO vehicle alone. Detection: 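Viability averaged over replicates and scaled to non-targeting siRNA, robust z-score with no drug, and synergy scores by drug for BYL719, cetuximab and trametinib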. Reading the numbers: viability z-score, siRNA alone: higher = more viable cells; low values mean essential gene; viability vs control, siRNA alone: higher = more viable cells; synergy score with BYL719 and synergy score with Cetuximab and synergy score with Trametinib: higher = stronger synthetic lethal effect with drug. Hit rule: 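Essential when the robust viability z-score with siRNA alone falls below -3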. Meaning of the calls: active = essential: knock-down alone cut viability (z below -3); inactive = no clear viability loss with knock-down alone.
The deposit covers 794 reagents; shown is a part drawn at random. Of all reagents, 9 (1.1%) were called active. 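Calls rest on knock-down alone, not drug synergy; synergy above 0.15 was grouped apart and does not affect calls.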 No viability above 1 is reported: the scale is capped. The record does not give: the amount of reagent, the time to read-out.

| target gene | viability z-score, siRNA alone | viability vs control, siRNA alone | synergy score with BYL719 | synergy score with Cetuximab | synergy score with Trametinib | Call |
| --- | --- | --- | --- | --- | --- | --- |
| CKM (GeneID 1158) | -0.355 | 0.884 | 0.0833 | -0.0247 | -0.0801 | inactive |
| CMPK1 (GeneID 51727) | 0.484 | 0.959 | -0.12 | -0.0772 | -0.0539 | inactive |
| BRWD1 (GeneID 54014) | -2.02 | 0.734 | -0.186 | -0.00519 | -0.0403 | inactive |
| SOX9 (GeneID 6662) | 0.775 | 0.985 | -0.21 | -0.0586 | -0.116 | inactive |
| STK33 (GeneID 65975) | -0.292 | 0.889 | -0.116 | 0.15 | 0.0375 | inactive |
| STK3 (GeneID 6788) | 0.0569 | 0.921 | -0.148 | 0.107 | -0.0292 | inactive |
| CSNK2B (GeneID 1460) | -0.736 | 0.849 | -0.154 | 0.033 | -0.0293 | inactive |
| PTK2 (GeneID 5747) | 0.0392 | 0.919 | -0.0327 | 0.054 | 0.0411 | inactive |
| EPHA3 (GeneID 2042) | 0.936 | 1 | -0.124 | -0.0447 | -0.0352 | inactive |
| AKAP9 (GeneID 10142) | 0.936 | 1 | -0.143 | -0.0447 | 0.0453 | inactive |
| PAPSS2 (GeneID 9060) | 0.872 | 0.994 | -0.179 | -0.0258 | 0.0648 | inactive |
| BMPR1A (GeneID 657) | -0.645 | 0.858 | -0.312 | -0.0491 | -0.136 | inactive |
| MYLK3 (GeneID 91807) | -1.59 | 0.773 | -0.269 | -0.0967 | -0.116 | inactive |
| NUCKS1 (GeneID 64710) | 0.936 | 1 | 0.0496 | -0.0447 | 0.109 | inactive |
| RIPK2 (GeneID 8767) | -0.559 | 0.865 | -0.154 | 0.00721 | 0.0977 | inactive |
| DYRK3 (GeneID 8444) | -1.4 | 0.79 | -0.187 | 0.144 | -0.0776 | inactive |
| WNK3 (GeneID 65267) | -1.16 | 0.811 | -0.2 | -0.0298 | -0.21 | inactive |
| ERN2 (GeneID 10595) | 0.936 | 1 | -0.198 | -0.0447 | -0.111 | inactive |
| ELF3 (GeneID 1999) | 0.0882 | 0.924 | -0.0202 | -0.0289 | -0.0145 | inactive |
| CDK4 (GeneID 1019) | -1.1 | 0.817 | -0.282 | -0.0821 | -0.0794 | inactive |
| NME4 (GeneID 4833) | -0.232 | 0.895 | -0.163 | -0.0494 | -0.083 | inactive |
| MGA (GeneID 23269) | -2.2 | 0.717 | 0.00433 | 0.0618 | -0.0223 | inactive |
| PTPRU (GeneID 10076) | -0.857 | 0.839 | -0.132 | -0.199 | -0.075 | inactive |
| ANKK1 (GeneID 255239) | 0.122 | 0.927 | -0.105 | -0.0315 | 0.0344 | inactive |
| HK2 (GeneID 3099) | 0.936 | 1 | 0.109 | -0.0447 | 0.0294 | inactive |
| MAPK1 (GeneID 5594) | 0.705 | 0.979 | 0.0228 | -0.0647 | 0.0765 | inactive |
| PRKAA1 (GeneID 5562) | -2.16 | 0.721 | -0.0586 | -0.0862 | -0.0666 | inactive |
| IGF2R (GeneID 3482) | 0.818 | 0.989 | -0.207 | 0.0436 | -0.158 | inactive |
| PIK3R2 (GeneID 5296) | 0.278 | 0.941 | -0.0835 | -0.0672 | -0.0664 | inactive |
| CDK12 (GeneID 51755) | 0.936 | 1 | -0.0333 | -0.0187 | 0.0272 | inactive |
| EFNA5 (GeneID 1946) | -0.411 | 0.879 | -0.129 | 0.022 | 0.0892 | inactive |
| EPHA7 (GeneID 2045) | -0.646 | 0.858 | -0.143 | 0.00924 | 0.0412 | inactive |
| RIPK3 (GeneID 11035) | -0.985 | 0.827 | -0.0571 | 0.0534 | -0.0331 | inactive |
| CSNK1G2 (GeneID 1455) | 0.936 | 1 | -0.198 | -0.0447 | -0.105 | inactive |
| COQ8B (GeneID 79934) | 0.936 | 1 | -0.112 | -0.0447 | 0.112 | inactive |
| IKBKG (GeneID 8517) | 0.936 | 1 | 0.0493 | 0.106 | 0.157 | inactive |
| MAP3K21 (GeneID 84451) | -0.985 | 0.827 | -0.215 | -0.21 | -0.0548 | inactive |
| PSKH2 (GeneID 85481) | 0.731 | 0.981 | -0.213 | 0.141 | 0.122 | inactive |
| OBSCN (GeneID 84033) | -0.459 | 0.874 | -0.123 | 0.0868 | 0.007 | inactive |
| FYN (GeneID 2534) | 0.694 | 0.978 | -0.216 | -0.0656 | -0.0938 | inactive |
| BMX (GeneID 660) | 0.592 | 0.969 | -0.223 | -0.0427 | 0.0184 | inactive |
| FN1 (GeneID 2335) | 0.55 | 0.965 | -0.102 | -0.0346 | 0.0265 | inactive |
| MUSK (GeneID 4593) | 0.936 | 1 | 0.111 | 0.169 | 0.226 | inactive |
| PMVK (GeneID 10654) | -1.58 | 0.773 | -0.127 | 0.0793 | -0.0481 | inactive |
| AURKA (GeneID 6790) | 0.655 | 0.975 | 0.0486 | 0.122 | 0.0808 | inactive |
| MAP3K12 (GeneID 7786) | 0.936 | 1 | -0.0876 | -0.0447 | 0.201 | inactive |
| PRKY (GeneID 5616) | 0.544 | 0.965 | -0.0954 | 0.00337 | -0.0446 | inactive |
| IPMK (GeneID 253430) | 0.885 | 0.995 | -0.202 | 0.0855 | -0.0209 | inactive |
| HASPIN (GeneID 83903) | 0.852 | 0.992 | -0.204 | -0.0401 | -0.00483 | inactive |
| ITPKB (GeneID 3707) | -0.373 | 0.882 | -0.219 | -0.00258 | -0.106 | inactive |
